Test results taken from article PMC4133157.
No constants are given. Whether binding was seen depends on the method and setting. In cells and extracts the contact can be indirect. Sequences can lack the tags named with a protein.

How the values were obtained:
[1] = biological target: T1, SAX-3::3XFLAG (HEK293T) (C. elegans) (UniProt G5EBF1); assay: co-IP; FLAG-tagged receptor on transfected HEK293T cells incubated with 10x concentrated conditioned medium holding the HA- and Gaussia luciferase-tagged ligand, 4 hours at 4°C; cells lysed in TNTE buffer (0.5% Triton X-100), anti-FLAG immunoprecipitation, luciferase activity of the washed immunoprecipitate, normalised to receptor level
T1 sequence: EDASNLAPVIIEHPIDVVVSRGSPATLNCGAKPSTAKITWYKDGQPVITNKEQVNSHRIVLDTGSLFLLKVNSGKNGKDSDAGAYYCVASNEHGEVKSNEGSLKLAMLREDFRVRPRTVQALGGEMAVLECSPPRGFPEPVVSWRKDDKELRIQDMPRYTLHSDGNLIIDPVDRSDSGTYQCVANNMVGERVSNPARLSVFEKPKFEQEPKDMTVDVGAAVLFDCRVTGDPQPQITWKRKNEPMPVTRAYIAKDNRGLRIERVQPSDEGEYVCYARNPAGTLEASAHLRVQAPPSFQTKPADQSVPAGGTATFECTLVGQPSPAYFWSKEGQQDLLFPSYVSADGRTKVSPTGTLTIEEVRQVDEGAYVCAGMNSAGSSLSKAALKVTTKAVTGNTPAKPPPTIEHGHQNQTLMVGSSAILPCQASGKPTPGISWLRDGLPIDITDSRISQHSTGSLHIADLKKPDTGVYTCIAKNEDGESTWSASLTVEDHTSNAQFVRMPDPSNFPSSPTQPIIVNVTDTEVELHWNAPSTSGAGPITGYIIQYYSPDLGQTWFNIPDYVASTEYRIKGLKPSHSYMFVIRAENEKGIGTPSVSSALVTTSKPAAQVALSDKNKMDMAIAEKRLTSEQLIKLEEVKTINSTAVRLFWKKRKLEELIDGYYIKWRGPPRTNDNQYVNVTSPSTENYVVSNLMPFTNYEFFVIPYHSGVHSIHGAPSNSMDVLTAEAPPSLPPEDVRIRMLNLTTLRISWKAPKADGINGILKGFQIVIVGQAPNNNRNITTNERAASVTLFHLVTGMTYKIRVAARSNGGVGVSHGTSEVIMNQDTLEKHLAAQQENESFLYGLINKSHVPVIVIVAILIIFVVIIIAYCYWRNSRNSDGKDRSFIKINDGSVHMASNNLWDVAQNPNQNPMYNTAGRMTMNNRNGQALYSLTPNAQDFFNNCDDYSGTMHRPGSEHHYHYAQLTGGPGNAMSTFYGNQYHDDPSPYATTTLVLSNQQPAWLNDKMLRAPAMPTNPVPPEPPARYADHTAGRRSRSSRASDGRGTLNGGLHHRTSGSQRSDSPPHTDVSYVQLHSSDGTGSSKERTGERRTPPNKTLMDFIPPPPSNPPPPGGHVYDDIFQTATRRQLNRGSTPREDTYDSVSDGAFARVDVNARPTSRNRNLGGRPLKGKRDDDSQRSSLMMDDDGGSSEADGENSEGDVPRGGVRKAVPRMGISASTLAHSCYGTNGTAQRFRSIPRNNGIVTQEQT

[2] = biological target: T2, 3XFLAG::PAT-2 (HEK293T) (C. elegans) (UniProt P34446); assay: as above
T2 sequence: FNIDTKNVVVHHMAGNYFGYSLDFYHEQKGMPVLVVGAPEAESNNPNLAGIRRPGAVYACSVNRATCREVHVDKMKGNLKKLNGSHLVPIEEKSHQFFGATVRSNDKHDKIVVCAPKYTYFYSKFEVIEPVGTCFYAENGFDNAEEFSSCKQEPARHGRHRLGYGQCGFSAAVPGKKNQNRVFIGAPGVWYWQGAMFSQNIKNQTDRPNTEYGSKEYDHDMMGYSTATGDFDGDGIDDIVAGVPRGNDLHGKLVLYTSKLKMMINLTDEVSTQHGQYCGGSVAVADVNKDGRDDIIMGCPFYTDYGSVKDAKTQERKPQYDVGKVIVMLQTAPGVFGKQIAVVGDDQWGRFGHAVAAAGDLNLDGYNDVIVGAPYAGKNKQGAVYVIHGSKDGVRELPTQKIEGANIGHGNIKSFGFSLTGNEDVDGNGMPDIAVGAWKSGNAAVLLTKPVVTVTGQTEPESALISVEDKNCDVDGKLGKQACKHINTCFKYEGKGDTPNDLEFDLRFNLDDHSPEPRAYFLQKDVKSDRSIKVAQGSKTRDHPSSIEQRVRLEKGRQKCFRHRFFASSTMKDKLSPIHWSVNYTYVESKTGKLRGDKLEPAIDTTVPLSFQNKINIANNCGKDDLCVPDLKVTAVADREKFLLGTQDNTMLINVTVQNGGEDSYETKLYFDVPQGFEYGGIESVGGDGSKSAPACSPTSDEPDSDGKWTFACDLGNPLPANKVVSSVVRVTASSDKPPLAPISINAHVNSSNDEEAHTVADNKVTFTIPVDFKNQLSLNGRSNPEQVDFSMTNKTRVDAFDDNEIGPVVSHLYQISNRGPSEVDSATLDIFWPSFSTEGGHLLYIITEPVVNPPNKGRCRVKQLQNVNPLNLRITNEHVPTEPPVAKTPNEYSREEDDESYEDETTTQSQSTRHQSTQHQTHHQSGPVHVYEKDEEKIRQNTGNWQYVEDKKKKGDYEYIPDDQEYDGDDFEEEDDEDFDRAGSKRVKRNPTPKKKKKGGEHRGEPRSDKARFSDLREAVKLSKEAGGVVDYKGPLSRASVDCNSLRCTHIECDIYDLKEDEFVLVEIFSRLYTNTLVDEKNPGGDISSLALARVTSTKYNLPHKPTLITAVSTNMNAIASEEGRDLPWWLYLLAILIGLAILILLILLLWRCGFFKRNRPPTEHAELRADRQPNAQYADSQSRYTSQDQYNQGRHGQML

HA::MADD-4B::Gaussia luciferase (C. elegans) (ligand)
binding [1]: no binding | binding [2]: no binding
